PubChem BioAssay AID1259254, NCATS | 2017
Screen: 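Genome-wide screen for genes that prevent DNA re-replication in cancer cells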 (primary screen). Cells: human HCT116 colorectal cancer cells. Reagent: single siRNA against human genes. Time to read-out: 3 days. Read-out: 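Nuclei stained with Hoechst and imaged; cell-cycle phase assigned by DNA content; G2 share scaled per plate, non-targeting siRNA 0%, GMNN siRNA 100%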. Scale: G2 robust z-score and G2 cells, % of GMNN control: higher = more G2 cells, more excess DNA replication. Call rule: 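Active siRNAs have a G2 robust z of 5 or more median absolute deviations over the median, which in these data means about 38% or higher of GMNN control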.
In all, the deposit lists about 59,000 reagents; below is a random part of them. Of all reagents, about 1,550 (2.6%) were called active. 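G2 share is only a proxy for re-replication; each gene was hit by three separate siRNAs, and active genes were retested.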 Reagents against one gene are numbered here. Not all columns of the deposit are shown. Not given: the amount of reagent.

Which result is listed for FRMPD2 (FERM and PDZ domain containing 2) #1?
G2 robust z-score: 0.679; G2 cells, % of GMNN control: 7.74; Outcome: inactive

How did the screen score FRMPD2 (FERM and PDZ domain containing 2) #2?
G2 robust z-score: 2.77; G2 cells, % of GMNN control: 22.5; Outcome: inactive

For FRMPD2 (FERM and PDZ domain containing 2) #3, what was measured?
G2 robust z-score: 2.68; G2 cells, % of GMNN control: 21.8; Outcome: inactive

For WASHC2A (WASH complex subunit 2A) #1, how do the results read?
G2 robust z-score: -0.567; G2 cells, % of GMNN control: -1.02; Outcome: inactive

What did the screen give for WASHC2A (WASH complex subunit 2A) #2?
G2 robust z-score: 1.65; G2 cells, % of GMNN control: 14.6; Outcome: inactive

Which result is listed for WASHC2A (WASH complex subunit 2A) #3?
G2 robust z-score: 1.54; G2 cells, % of GMNN control: 13.8; Outcome: inactive

What is on record for AP3D1 (adaptor related protein complex 3 subunit delta 1) #1?
G2 robust z-score: -0.151; G2 cells, % of GMNN control: 1.9; Outcome: inactive

For AP3D1 (adaptor related protein complex 3 subunit delta 1) #2, what does the deposit list?
G2 robust z-score: -1.18; G2 cells, % of GMNN control: -5.35; Outcome: inactive

For AP3D1 (adaptor related protein complex 3 subunit delta 1) #3, what was measured?
G2 robust z-score: 0.268; G2 cells, % of GMNN control: 4.85; Outcome: inactive

Which result is listed for TMEM131L (transmembrane 131 like) #1?
G2 robust z-score: -0.647; G2 cells, % of GMNN control: -1.58; Outcome: inactive

Which result is listed for TMEM131L (transmembrane 131 like) #2?
G2 robust z-score: -0.187; G2 cells, % of GMNN control: 1.66; Outcome: inactive

For TMEM131L (transmembrane 131 like) #3, what was measured?
G2 robust z-score: 0.46; G2 cells, % of GMNN control: 6.21; Outcome: inactive

2 entries already listed, sorted by “G2 cells, % of GMNN control”, ascending:
FRMPD2 (FERM and PDZ domain containing 2) #1 → G2 robust z-score = 0.679; G2 cells, % of GMNN control = 7.74; Outcome = inactive
FRMPD2 (FERM and PDZ domain containing 2) #2 → G2 robust z-score = 2.77; G2 cells, % of GMNN control = 22.5; Outcome = inactive
